{
  "source": "PubChem BioAssay AID1347423",
  "about": "(Functional Genomics Laboratory (NCATS/FGL), 2020)",
  "note": "Screen size: about 52,000 sequences; about 210 (0.4%) were called active.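 The calls were made as follows: active = gene whose silencing raises cell survival under the drug, median off-target-corrected z-score across its silencing RNAs 2 or more; inactive = the rest.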 Some of the results follow.",
  "data": [
    {"assay": "Resistance to Poly (ADP-Ribose) Polymerase inhibitor: Gene Identification via Genome-wide siRNA Screen", "settings": "mouse BRCA2 R2336H ES cells, olaparib, CellTiter-Glo viability; stronger effect = higher value", "method_in_brief": "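Genome-wide siRNA screen (3 siRNAs/gene, 20 nM) in mouse ES cells carrying hypomorphic BRCA2 R2336H; olaparib 500 nM added 48 h post-transfection, CellTiter-Glo viability 72 h later. Normalized to plate-median negative control; MAD z-scores, gene median, seed-adjusted.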", "values": [
      {"sequence": "CGAGUGAGUCACGUAUCAUTT against 4930544M13Rik", "z-score": "inactive: -0.812"},
      {"sequence": "GCCUAGUGACCCUUUACUATT against Stx1a", "z-score": "inactive: -0.349"},
      {"sequence": "CCCUAGGAAAGGGUUUUAGTT against 0610039G24Rik", "z-score": "inactive: 1.2"},
      {"sequence": "GGAAUUCAAUGACGUGUACTT against Mapk14", "z-score": "inactive: 1.24"},
      {"sequence": "GCUUGUGCAAAGAACAUGUTT against Itgad", "z-score": "inactive: 0.236"},
      {"sequence": "GAGGGACUGUAAUGUUGACTT against Olfr560", "z-score": "inactive: 0.0865"},
      {"sequence": "GGCUCCUGAAAGAACUGGATT against Arpm2", "z-score": "inactive: -1.32"},
      {"sequence": "GGUCUACUGACUCAAAGUCTT against Mrps33", "z-score": "inactive: 0.355"},
      {"sequence": "CCACGUUAUCAGCUAUUACTT against Exoc7", "z-score": "inactive: -1.44"},
      {"sequence": "GGCUUCAACCGGAGAUUUATT against Pde8b", "z-score": "inactive: 0.987"},
      {"sequence": "CCUACUCAGUGUCUUUCAATT against 9530027K23Rik", "z-score": "inactive: 0.14"},
      {"sequence": "CCCUGAUGUUCUGUUUGAATT against Ube1dc1", "z-score": "inactive: 0.236"},
      {"sequence": "GGUCCAAAAAAGGUUCAAATT against Btbd3", "z-score": "inactive: 0.36"},
      {"sequence": "GGAUGGCAUGUCCUUCCAATT against Elf3", "z-score": "inactive: 0.94"},
      {"sequence": "GGGCUGAAGAUAAUGCAGATT against Pcna", "z-score": "inactive: -2.81"},
      {"sequence": "GCAAGGUGACUCGAAGAAATT against Spry1", "z-score": "inactive: -1.02"},
      {"sequence": "GGGACAACUUUGCACAGGATT against Gfap", "z-score": "inactive: 0.358"},
      {"sequence": "GGAGACCAUCAAGAAGAGCTT against BC013481", "z-score": "inactive: 0.0983"},
      {"sequence": "GGAAACACCAGAGAAGUCCTT against Etf1", "z-score": "inactive: -1.28"},
      {"sequence": "GCUGACCACUUCAAGGUUGTT against Lgals3", "z-score": "inactive: -0.845"},
      {"sequence": "GAACGGGUUACCAUGUGGUTT against Gm1620", "z-score": "inactive: -0.132"},
      {"sequence": "GGAAGAAAACAUUUAGCCCTT against Mmd2", "z-score": "inactive: -0.391"},
      {"sequence": "GGAAGUGAUGAUAAGUCUATT against D6Wsu163e", "z-score": "inactive: 0.567"},
      {"sequence": "CCCGUAUGAGAAGUUCUAATT against Pttg1ip", "z-score": "inactive: -0.798"},
      {"sequence": "GGCAUUGUCCUGUGAUCUCTT against Il10ra", "z-score": "inactive: -0.289"},
      {"sequence": "CCUCAUUGAGGUAAUGCGGTT against 1110030L07Rik", "z-score": "inactive: 0.202"},
      {"sequence": "GGAAAAAAAAAUCAGAAGGTT against Trp53bp2", "z-score": "inactive: 0.555"},
      {"sequence": "GGGCUGCAUUAUUUGAAUUTT against 1110063G11Rik", "z-score": "inactive: 1.01"},
      {"sequence": "GGGAGAAGAAAAUGACUUUTT against Edaradd", "z-score": "inactive: -1.63"},
      {"sequence": "GGAAAUCGAAUGAAUAACCTT against Klf12", "z-score": "inactive: 0.403"},
      {"sequence": "GGUCAUCAAAUACAAAAUGTT against Prlpk", "z-score": "inactive: -0.0665"},
      {"sequence": "CCUGUUAGAACAUAAGGGCTT against Thy1", "z-score": "inactive: 0.28"},
      {"sequence": "GGGCUAUUGCAUCUUUUAATT against Olfr711", "z-score": "inactive: 0.661"},
      {"sequence": "GGAAGACAUAGAAGAAAAGTT against Zdhhc12", "z-score": "inactive: -1.45"},
      {"sequence": "GGUUUAUUGACAAGAAGGATT against D14Ertd436e", "z-score": "inactive: 0.344"},
      {"sequence": "GCUGGAAGUGAACAUCGAUTT against Gng8", "z-score": "inactive: -1.63"},
      {"sequence": "GGUAGAAAACUAGCUAAUATT against Slc35e3", "z-score": "inactive: 0.906"},
      {"sequence": "GCACUACAGACACUUUUAGTT against LOC433384", "z-score": "inactive: 1.64"},
      {"sequence": "GCGUGGCUGUCAUGUAUUUTT against Olfr244", "z-score": "inactive: -1.73"},
      {"sequence": "GGUAAGUCACCAUUAUACCTT against Pcdhb12", "z-score": "inactive: -1.3"},
      {"sequence": "GCCUUUCUUCUGUCAAUGATT against Olfr281", "z-score": "inactive: 0.658"},
      {"sequence": "GGUCAUCAGUCCUGACACUTT against Dia1", "z-score": "inactive: 0.0234"},
      {"sequence": "GCUCCUAGACAACAUCGUGTT against Ppp1r3b", "z-score": "inactive: -0.213"},
      {"sequence": "GGACUGAGGUAUCAUUUACTT against Gtf2f2", "z-score": "inactive: -1.35"},
      {"sequence": "CCGGUUUCAAAUUGCCACUTT against Psmb4", "z-score": "inactive: -2.29"},
      {"sequence": "CCUUUCAUACUUACAUCCUTT against Gpr100", "z-score": "inactive: 1.44"},
      {"sequence": "GGAGAAGGGCCUGAAGUAUTT against Lsm5", "z-score": "inactive: -0.418"},
      {"sequence": "GGAGAAAUGAAGGUAUACATT against Col4a3bp", "z-score": "inactive: -1.75"},
      {"sequence": "GUAUUGGAAGCUCAUUUGATT against Pigf", "z-score": "inactive: 0.402"},
      {"sequence": "GGUGUUCUUGAGCUGUGAGTT against Igfbp7", "z-score": "inactive: -1.03"},
      {"sequence": "GCAGAAGUUCUACAAUUACTT against 4930486G11Rik", "z-score": "inactive: 0.405"},
      {"sequence": "GGAGAAUCUGAAGGACACCTT against Cd151", "z-score": "inactive: 0.793"},
      {"sequence": "CCUAGAGCCGUGUGCAUACTT against Plp2", "z-score": "inactive: 2.14"},
      {"sequence": "GCUGGACCUUCAUGUAAUATT against Pcsk1", "z-score": "inactive: 0.925"},
      {"sequence": "GGAAGAGGCAGAAGUCAUCTT against Bcl2l12", "z-score": "inactive: 0.572"},
      {"sequence": "GGAUUUAGGGACAACACAATT against 8430427H17Rik", "z-score": "inactive: 2.27"},
      {"sequence": "GAUGACUUUAUCCUCUUGGTT against Olfr1396", "z-score": "inactive: -0.588"},
      {"sequence": "GGUGGUUGGAGUACUCAAGTT against Capza1", "z-score": "inactive: -0.456"},
      {"sequence": "GCAAUUAGUAACUGAGAAUTT against Dpp10", "z-score": "inactive: -0.414"},
      {"sequence": "GGAUCAACGAGGUAAAGUCTT against Itga8", "z-score": "inactive: -1.2"},
      {"sequence": "GGCUGUCUUUGUUCCAGUATT against Tnfrsf10b", "z-score": "inactive: -0.0684"},
      {"sequence": "GCGCAAAGAUGGCUAUUGCTT against 6330442E02Rik", "z-score": "inactive: -0.388"},
      {"sequence": "GGAAGGCACGUGAAUGGUGTT against AI606181", "z-score": "inactive: 0.835"},
      {"sequence": "GGCUUAGCCUUUUCUUCCCTT against 5730593N15Rik", "z-score": "inactive: -0.352"},
      {"sequence": "GCAGAUAACAACAGUUGAATT against B3gat2", "z-score": "inactive: -0.122"},
      {"sequence": "CCGUUGCCUGAUAAGUUCUTT against Klf3", "z-score": "inactive: 1.05"}
    ]}
  ]
}
